Data taken from PubChem BioAssay AID504749, deposited by NCATS (2011).

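Malaria parasite (P. falciparum) lines kept in red blood cells; parasite DNA is measured by SYBR Green fluorescence after lysis, 72 h after compound addition.
Each compound was titrated across a series from about 0.000037 to 29 µM.
The number is the fitted AC50, the concentration giving a half-maximal change in signal; a lower value means higher potency, whether the curve shows a decrease or an increase.
Calls follow the curve class and fit quality: every row here is inconclusive, covering signal-raising curves and weak, poorly fitted, partial or highest-dose-only inhibition curves.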

Values are in µM.
All entries here are filed as inconclusive.
Only part of the assay is shown, chiefly results filed as inconclusive.
A potency from a partial, single-point or poor curve is only a rough figure.
The first word of each remark tells which way the curve ran; it can be opposite to the aim of the assay.

With CCN1CCCC1=O [CP297] the assay gave Potency 0.0038 µM (inhibitor, full curve, poor fit).
With CCN1CCCC1=O [7G8] the assay gave Potency 11.22 µM (inhibitor, single point).
With CCCCCCCCCCCC[n+]1ccc2ccccc2c1 [PC49] the assay gave Potency 8.912 µM (inhibitor, partial curve, poor fit).
With CCOc1ccccc1C(N)=O [CP291] the assay gave Potency 19.01 µM (inhibitor, partial curve, poor fit).
With C[C@H](CS)C(=O)N1CCC[C@H]1C(=O)O [CP192] the assay gave Potency 0.0054 µM (activator, full curve, poor fit).
With C[C@H](CS)C(=O)N1CCC[C@H]1C(=O)O [CP211] the assay gave Potency 0.0953 µM (inhibitor, full curve, poor fit).
With Cc1cccc(C)c1NC(=O)CN1CCCCCC1 [DIV17] the assay gave Potency 15.1 µM (inhibitor, partial curve, poor fit).
With O=C(O)CCC(=O)O [CP335] the assay gave Potency 19.01 µM (inhibitor, single point).
With CC(=O)N[C@H](CC(C)C)C(=O)O [CP260] the assay gave Potency 17.78 µM (inhibitor, single point).
With COC(=O)[C@@H](N)Cc1ccc(O)c(O)c1 [DIV17] the assay gave Potency 15.1 µM (inhibitor, partial curve).
With COC(=O)[C@@H](N)Cc1ccc(O)c(O)c1 [7G8] the assay gave Potency 19.95 µM (inhibitor, single point).
With COC(=O)[C@@H](N)Cc1ccc(O)c(O)c1 [3D7] the assay gave Potency 11.22 µM (inhibitor, partial curve, poor fit).
With COC(=O)[C@@H](N)Cc1ccc(O)c(O)c1 [TAB113] the assay gave Potency 12.59 µM (inhibitor, single point).
With COC(=O)[C@@H](N)Cc1ccc(O)c(O)c1 [parasite line A] the assay gave Potency 12.59 µM (inhibitor, single point).
With COc1c2c(cc3c1OCO3)CCN(C)C2 [W2] the assay gave Potency 2.031 µM (inhibitor, single point).
With COc1c2c(cc3c1OCO3)CCN(C)C2 [CP211] the assay gave Potency 5.726 µM (inhibitor, partial curve, poor fit).
With C[Si](C)(C)O[Si](C)(C)C [CP266] the assay gave Potency 4.256 µM (activator, single point).
With C[Si](C)(C)O[Si](C)(C)C [CP262] the assay gave Potency 4.256 µM (inhibitor, single point).
With CC(=O)N[C@@H](Cc1ccc(O)cc1)C(=O)O [CP256] the assay gave Potency 0.0562 µM (inhibitor, single point).
With FC(F)(F)C(F)(F)C(F)(F)C(F)(F)C(F)(F)F [DIV14] the assay gave Potency 19.01 µM (inhibitor, single point).
With CCCCCCC[N+](CC)(CC)CCCCc1ccc(Cl)cc1 [CP262] the assay gave Potency 0.5725 µM (inhibitor, partial curve, poor fit).
With Cc1cn([C@H]2C=C[C@@H](CO)O2)c(=O)[nH]c1=O [CP266] the assay gave Potency 0.0269 µM (activator, full curve, poor fit).
With CCCCCCCCCCCCCCCC(=O)NCCO [7G8] the assay gave Potency 14.13 µM (inhibitor, single point).
With CC1(C)OC2CC(=O)OC[C@@]23C1CC(=O)[C@]1(C)C3CC[C@@]2(C)C(c3ccoc3)OC(=O)C3O[C@@]321 (some centres unmarked) [W2] the assay gave Potency 0.0034 µM (inhibitor, full curve, poor fit).
With C[n+]1c2cc(N)ccc2cc2ccc(N)cc21 [ICS] the assay gave Potency 0.1778 µM (inhibitor, full curve, poor fit).
With COc1cccc2c1C(=O)c1c(O)c3c(c(O)c1C2=O)C[C@](O)(C(=O)CO)C[C@@H]3O[C@H]1C[C@H](N)[C@@H](O)[C@H](C)O1 [GB4] the assay gave Potency 19.01 µM (inhibitor, single point).
With O=C1O[C@H]([C@@H](O)CO)C(O)=C1O [ECU] the assay gave Potency 17.78 µM (inhibitor, single point).
With CNc1ccc(C(=O)CC(O)CCC(C)C2OC(=O)CC(O)CC(=O)CC(O)CC(O)CC(O)CC(O)CC3(O)CC(O)C(C(=O)OC)C(CC(O[C@@H]4OC(C)C(O)C(N)C4O)/C=C/C=C/C=C/C=C/C=C/C=C/C=C/C2C)O3)cc1 (some centres unmarked) [TAB113] the assay gave Potency 3.981 µM (inhibitor, single point).
With CNc1ccc(C(=O)CC(O)CCC(C)C2OC(=O)CC(O)CC(=O)CC(O)CC(O)CC(O)CC(O)CC3(O)CC(O)C(C(=O)OC)C(CC(O[C@@H]4OC(C)C(O)C(N)C4O)/C=C/C=C/C=C/C=C/C=C/C=C/C=C/C2C)O3)cc1 (some centres unmarked) [ICS] the assay gave Potency 17.78 µM (inhibitor, single point).
With CNc1ccc(C(=O)CC(O)CCC(C)C2OC(=O)CC(O)CC(=O)CC(O)CC(O)CC(O)CC(O)CC3(O)CC(O)C(C(=O)OC)C(CC(O[C@@H]4OC(C)C(O)C(N)C4O)/C=C/C=C/C=C/C=C/C=C/C=C/C=C/C2C)O3)cc1 (some centres unmarked) [CP260] the assay gave Potency 14.13 µM (inhibitor, single point).
With CCCCC(CC)COC(=O)/C=C/c1ccc(OC)cc1 (centres unmarked) [7G8] the assay gave Potency 17.78 µM (inhibitor, single point).

4 of the entries, repeated:

{"smiles": "COC(=O)[C@@H](N)Cc1ccc(O)c(O)c1", "tested on / at": "parasite line A", "Potency (µM)": "12.59", "curve": "inhibitor, single point"}
{"smiles": "C[C@H](CS)C(=O)N1CCC[C@H]1C(=O)O", "tested on / at": "CP211", "Potency (µM)": "0.0953", "curve": "inhibitor, full curve, poor fit"}
{"smiles": "CNc1ccc(C(=O)CC(O)CCC(C)C2OC(=O)CC(O)CC(=O)CC(O)CC(O)CC(O)CC(O)CC3(O)CC(O)C(C(=O)OC)C(CC(O[C@@H]4OC(C)C(O)C(N)C4O)/C=C/C=C/C=C/C=C/C=C/C=C/C=C/C2C)O3)cc1", "stereo": "some centres unmarked", "tested on / at": "TAB113", "Potency (µM)": "3.981", "curve": "inhibitor, single point"}
{"smiles": "CCCCCCCCCCCC[n+]1ccc2ccccc2c1", "tested on / at": "PC49", "Potency (µM)": "8.912", "curve": "inhibitor, partial curve, poor fit"}